Laboratory results from US9815788B2, “Anti-angiogenic compounds” (University College Dublin National University of Ireland, …, priority 2012, dated 2017).
For at least one compound, name, drawing or mass did not settle the structure.

Legend:
[1] = tested on: zebrafish intersegmental vessels; assay: Quantification of intersegmental vessel number in zebrafish; type: in vivo; settings: for inhibition of developmental angiogenesis of intersegmental vessels (number of intersegmental vessels): 10 μM, from 6 hpf; for dose-dependent inhibition of development of intersegmental vessels: decreasing doses 10, 7.5, 5 and/or 1 μM
Protocol: […] Larvae were manually dechorionated, euthanised, and fixed in 4% PFA at 4° C. overnight before analysis. The larvae were then washed with PBS and transferred to depression slides for observation under epi-fluorescence in an Olympus SZX16 fluorescent microscope. The number of intersegmental vessels was counted and the average number was graphed for each drug.
Larvae were manually dechorionated, euthanised, and fixed in 4% PFA at 4° C. overnight before analysis. The larvae were then washed with PBS and transferred to depression slides for observation under epi-fluorescence in an Olympus SZX16 fluorescent microscope. The number of intersegmental vessels was counted and the average number was graphed for each drug.

[2] = tested on: zebrafish hyaloid vasculature; assay: Quantification of primary hyaloid vasculature branch number in Tg(fli1:EGFP) zebrafish; type: in vivo; settings: for inhibition of developmental angiogenesis of the hyaloid vasculature (number of primary hyaloid vessels): typically 10 μM or 5 μM, from 24 hpf, vs DMSO control; for dose-dependent inhibition of development of hyaloid vessels: decreasing doses 20, 10, 7.5, 5, 2.5, 1 and/or 0.5 μM, HCl salt
Protocol: (§1) All experiments were carried out under ethical approval granted by the UCD animal research ethics committee. Tg(fli1:EGFP) zebrafish were maintained according to standard procedures on a 14 hr light/10 hr dark cycle at 28° C. Embryos were obtained by natural spawning and developmental stages established by time and morphological criteria. […] Larvae were euthanised, and fixed in 4% PFA at 4° C. overnight before analysis.
Overall patterning of the vasculature (fin, gut and intersegmental vessels) was examined for abnormalities. Right lenses were dissected from the larvae and transferred to depression slides for observation under epi-fluorescence in the Olympus SZX16. Patterning of the hyaloid vessels on the treated larval lenses was compared to DMSO controls and the archetypal pattern previously described (Alvarez et al., 2007; Alvarez et al., 2009).
as §1, with “analysis. Lenses were dissected from the larvae and transferred to depression slides for observation under epi-fluorescence in the Olympus SZX16. Patterning of the hyaloid vessels on the treated larval lenses was compared to DMSO controls and the archetypal pattern previously described (Alvarez et al., 2007; Alvarez et al., 2009).” for “analysis.”

[3] = tested on: OE33R radio-resistant oesophageal adenocarcinoma cells; assay: Cell number after 24 hours drug treatment (crystal violet absorbance), OE33R; type: cell-based, human; settings: 10 μM
Protocol: (§2) OE33P radio-sensitive and OE33R radio-resistant oesophageal adenocarcinoma cells were used to test the effects of the compounds 11B HCl, […], 11B CC16 HCl, 11B 471 and 11B 268 on cell number. Cells were maintained in RPMI media supplemented with 10% foetal calf serum, penicillin (100 U/ml) and streptomycin (100 gig/ml). A total of 11.000 or 13,000 cells, in 100 μl media, were seeded per well in 24 well plates and left to incubate for 24 hours, with an additional 150 μl media added after 5 hours. The media was replaced with solutions containing 10 μM of 11B HCl, 11B CC11 HCl, 11B CC16 HCl, 11B 471, 11B 268 or fresh media as a control. Each drug had 6 replicates. After 24 hours of treatment, the cells were fixed with 1% glutaraldehyde for 15 minutes and then stained with crystal violet for 30 minutes. The plates were blotted and dried overnight. The cells were resuspended with 1% TritonX-100 and shaken for 15 minutes. The absorbance was read on a spectrophotometer at 590 nm.
(§3) OE33P radiosensitive and OE33R radioresistant cells were used to test the effects of the compound 11B_Z_HCl on toxicity. Cells were maintained in RPMI media supplemented with 10% foetal calf serum, penicillin (100 U/ml) and streptomycin (100 μg/ml). […] The absorbance was read on a spectrophotometer at 590 nm.

[4] = tested on: OE33P radio-sensitive oesophageal adenocarcinoma cells; assay: Cell number after 24 hours drug treatment (crystal violet absorbance), OE33P; type: cell-based, human; settings: 10 μM
Protocol: as §2, §3

[5] = target: T1, cysteinyl-leukotriene CysLT1 (Cavia porcellus, UniProt Q2NNR5); assay: Ex vivo cysteinyl leukotriene guinea pig lung strip assay; settings: 30 μM
T1 construct: a lung strip obtained from Duncan Hartley derived male or female guinea pigs; from tissue; host or cells: guinea pig lung strip
T1 sequence (Q2NNR5 1-340): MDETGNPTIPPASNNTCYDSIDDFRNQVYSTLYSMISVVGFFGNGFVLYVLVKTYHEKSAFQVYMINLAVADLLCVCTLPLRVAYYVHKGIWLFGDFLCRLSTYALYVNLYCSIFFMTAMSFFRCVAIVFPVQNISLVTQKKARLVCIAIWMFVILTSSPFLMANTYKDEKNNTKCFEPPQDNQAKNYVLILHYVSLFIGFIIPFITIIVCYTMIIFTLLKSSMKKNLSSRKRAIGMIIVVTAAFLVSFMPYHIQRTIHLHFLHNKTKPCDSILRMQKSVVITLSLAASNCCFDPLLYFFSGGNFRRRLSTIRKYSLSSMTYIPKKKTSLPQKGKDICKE
Protocol: FIG. 15 tables the percentage inhibition by compounds 11B_CC11_HCl and 11B_CC16_HCl on the cysteinyl leukotriene pathway in in vitro and ex vivo assays. […] For in vitro cysteinyl leukotriene cell-based assays 11B_CC11_HCl and 11B_CC16_HCl, were tested at 30 μM concentration in duplicate, in a single experiment for their ability to inhibit the calcium mobilisation response of the CysLT1 receptor to 0.1 nM leukotriene D4 in CHO cells over-expressing the CysLT1 receptor or the calcium mobilisation response of the CysLT2 receptor to 30 nM of leukotriene C4 in HEK 293 cells over expressing the CysLT2 receptor.
Target profiling using Cerep and Eurofins/Panlabs profiling screens was undertaken using 11B_CC11_HCl and 11B_CC16_HCl in order to investigate the mechanism of action. […] Test substance (30 LM)-induced isometrically recorded contraction by 50 percent or more within 5 min, relative to control 3 nM leukotriene D4 response, indicates possible cysteinyl-leukotriene LT1 receptor agonist activity. […] To measure inhibition of cysteinyl leukotriene 1 (CysLT1 [LTD4]) and cysteinyl leukotriene 2 (CysLT2 [LTC4]) receptor activity, calcium mobilisation was measured using Fluor-3-loaded CHO cells (for cysLT1 assays) or HEK-293 cells (for CysLT2 assays) which stably express either the CysLT1 or CysLT2 receptors. […]

retinal blood vessels = assay: Ocular neovascularisation in mouse oxygen-induced retinopathy model; type: in vivo, C57BL/6J mice; settings: 5 μM injected intravitreally on P13, culled P17; compared to P17 control
Protocol: Postnatal day (P) 7 C57BL/6J mice together with their dams were treated in 75% oxygen (hyperoxia) for 5 days causing regression of retinal blood vessels. They were returned to normoxia (relative hypoxia) on P12, causing rapid regrowth of the retinal blood vessels, 5 μM 11B_CC11_HCl, 5 μM 11B_CC16_HCl, 5 μM pazopanib or 2.5 mg/ml avastin was injected intravitreally on P13. The mice were culled on P17, eyes fixed in 4% paraformaldehyde at 4° C. overnight, flat mounted and retinas stained for isolectin (red, stains vasculature).

| Structure (SMILES) | inhibition of developmental angiogenesis of intersegmental vessels (number of intersegmental vessels) [1] | dose-dependent inhibition of development of intersegmental vessels [1] | inhibition of developmental angiogenesis of the hyaloid vasculature (number of primary hyaloid vessels) [2] | cell number, measured by % absorbance [3] | cell number, measured by % absorbance [4] | agonist activity (induced contraction of lung strip) [5] | inhibition of leukotriene D4-induced contraction of guinea pig lung strip ([5]; duplicate, single experiment, 3 nM leukotriene D4) | inhibition of neovascularisation (avascular region as percentage of whole retina) (retinal blood vessels) | dose-dependent inhibition of development of hyaloid vessels [2] | dose-dependent inhibition of development of hyaloid vessels ([2]; listed as 11B-CC16 HCl) |
| --- | --- | --- | --- | --- | --- | --- | --- | --- | --- | --- |
| Oc1ccccc1C#Cc1ccc2ccccc2n1 [Compound 11B_CC16, 2-Quinolin-2-yl-ylethynyl-phenol] | inhibit developmental angiogenesis of zebrafish intersegmental vessels in a statistically significant manner | dose-dependent effect | inhibit developmental angiogenesis of the zebrafish hyaloid vasculature in a statistically significant manner |  |  |  |  |  |  |  |
| Cl.Oc1ccccc1C#Cc1ccc2ccccc2n1 [Compound 11B_CC16_HCl, 2-Quinolin-2-yl-ylethynyl-phenol HCl salt] | inhibit developmental angiogenesis of zebrafish intersegmental vessels in a statistically significant manner | inhibit developmental angiogenesis of zebrafish intersegmental vessels in a dose-dependent statistically significant manner | inhibit developmental angiogenesis of the zebrafish hyaloid vasculature in a statistically significant manner | did not significantly reduce cell number | did not significantly reduce cell number | no agonist activity | completely inhibit | inhibit neovascularisation | inhibit developmental angiogenesis of zebrafish hyaloid vasculature in a dose-dependent statistically significant manner | dose-dependent effect |
